{
  "source": "PubChem BioAssay AID1347423",
  "about": "(Functional Genomics Laboratory (NCATS/FGL), 2020)",
  "note": "About 210 (0.4%) of roughly 52,000 sequences were called active.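 Rule for the calls: active = gene whose silencing raises cell survival under the drug, median off-target-corrected z-score across its silencing RNAs 2 or more; inactive = the rest.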 Some of the results follow.",
  "data": [
    {"assay": "Resistance to Poly (ADP-Ribose) Polymerase inhibitor: Gene Identification via Genome-wide siRNA Screen", "conditions": "mouse BRCA2 R2336H ES cells, olaparib, CellTiter-Glo viability; hits give high values", "method_in_brief": "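Mouse BRCA2 R2336H ES cells were reverse-transfected with siRNA (20 nM final), treated at 48 h with 500 nM olaparib, and read by CellTiter-Glo after 72 h. Scores: MAD-based z per siRNA, median per gene, seed off-target correction.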", "values": [
      {"sequence": "CCUUCUACCUCACCUUACGTT against 4432406C05Rik", "z-score": "inactive: -0.696"},
      {"sequence": "GGUAUAUCCAUUCCAAAGATT against Osr2", "z-score": "inactive: -0.719"},
      {"sequence": "GGGACAACCUUACAUCGAUTT against Mpz", "z-score": "inactive: 1.62"},
      {"sequence": "GGAUGGAUCUAAAGACACUTT against 4930544M13Rik", "z-score": "inactive: -0.811"},
      {"sequence": "GCUGGCCUUUCUAAAAAAATT against Plekhm1", "z-score": "inactive: 0.148"},
      {"sequence": "CCCAAUCUCCAUCUAUGCCTT against Podxl", "z-score": "inactive: 0.468"},
      {"sequence": "GGAUUUGGCUUUGUAACUUTT against Hnrpa2b1", "z-score": "inactive: 0.264"},
      {"sequence": "CCGAUCACUCAUGGUUGACTT against Sra1", "z-score": "inactive: -0.904"},
      {"sequence": "GGAAAAAGGCAUCAAGUAUTT against Dhfr", "z-score": "inactive: 0.449"},
      {"sequence": "CCGACACAUCAUGUUGACGTT against Zbtb9", "z-score": "inactive: -0.459"},
      {"sequence": "CGCGUUUCGUGUUUCAAAATT against Mus81", "z-score": "inactive: 0.218"},
      {"sequence": "GGAUUUUGACAGUCUGUGUTT against Pp11r", "z-score": "inactive: 1.17"},
      {"sequence": "CCUUAGGAUGACCUAAGGGTT against 1110063F24Rik", "z-score": "inactive: 0.771"},
      {"sequence": "GCUAUGAACCUCUAGGCAUTT against Bcl6b", "z-score": "inactive: 1.46"},
      {"sequence": "CGCCGCAGUAUUAAUGGCUTT against Nxph4", "z-score": "inactive: 3.47"},
      {"sequence": "GGUGAGAUUUGUGGCUUUATT against Clstn1", "z-score": "inactive: -0.457"},
      {"sequence": "GACCACUUUAUGGAUGAGUTT against Stx1b2", "z-score": "inactive: -0.0604"},
      {"sequence": "GCUACAAUUGGCCUUAUCUTT against B930007M17Rik", "z-score": "inactive: 0.294"},
      {"sequence": "GGCUUUAGCUUACCAGAUGTT against Abcd2", "z-score": "inactive: -2.07"},
      {"sequence": "GGCAUGGAAUCUGUUGUACTT against Olfr604", "z-score": "inactive: -0.384"},
      {"sequence": "CCCAUAGGGCUGAGGAACATT against Zfp53", "z-score": "inactive: -0.39"},
      {"sequence": "GCGAGGUGCCAAUAUUUUCTT against Btbd9", "z-score": "inactive: 0.369"},
      {"sequence": "GGAGUUCUUGGUCUCUUUGTT against BC031353", "z-score": "inactive: 0.444"},
      {"sequence": "GCAGGCUUGUUCAAAUCCGTT against Pcm1", "z-score": "inactive: 0.309"},
      {"sequence": "GCAGGUACUAUUUGUGACGTT against Olfr30", "z-score": "inactive: -0.496"},
      {"sequence": "CCAGUGUUUCUCACUAAAUTT against Ube2j1", "z-score": "inactive: 0.902"},
      {"sequence": "CGUGUUUCGACACCUCCUUTT against Trar3", "z-score": "inactive: -1.47"},
      {"sequence": "GGAAGGAUGUAAGUUGUCCTT against D11Ertd530e", "z-score": "inactive: 0.37"},
      {"sequence": "GGAUAUCCCAGACCCAUCATT against A230098A12Rik", "z-score": "inactive: 1.11"},
      {"sequence": "GGUCAAAACUUCCAAUUGATT against Hmx3", "z-score": "inactive: 0.452"},
      {"sequence": "CGGGCAAGCUCCAAAUGAGTT against 1110004E09Rik", "z-score": "inactive: -0.466"},
      {"sequence": "GGAAAACAAUCUCCUUCAATT against Olfr1260", "z-score": "inactive: 0.41"},
      {"sequence": "GGAGAACAUUGUUAUCUCGTT against Ngef", "z-score": "inactive: 0.0707"},
      {"sequence": "GCCUGUCAGAUAAGUUUAATT against 2400008B06Rik", "z-score": "inactive: -0.931"},
      {"sequence": "GGGUAUUAAGCAGGGAUCGTT against 1810009A15Rik", "z-score": "inactive: -1"},
      {"sequence": "GGGACAUGAAGGACACCAUTT against Olfr854", "z-score": "inactive: -1.38"},
      {"sequence": "GGAUGAGGACGAGUUCGUUTT against C79127", "z-score": "inactive: -2.38"},
      {"sequence": "GGAAGACCUGAUUGGAAAATT against Trpm1", "z-score": "inactive: 0.553"},
      {"sequence": "GGCGAACCUCUUCUCUGGATT against Glcci1", "z-score": "inactive: -1.07"},
      {"sequence": "CGUGAUGGGACUUGAGAAGTT against Epdd1", "z-score": "inactive: -1.04"},
      {"sequence": "GGAAAACUCCUCCUUAAUUTT against Wsb1", "z-score": "inactive: 1.66"},
      {"sequence": "GGGAGCAACAGAGAGCUUUTT against Olfr212", "z-score": "inactive: -1.7"},
      {"sequence": "GGCACUAAAGCCAAAGUUCTT against Cldn11", "z-score": "inactive: 0.0201"},
      {"sequence": "GGAUGAAUGGAGAACUGAATT against AI173486", "z-score": "inactive: -1.2"},
      {"sequence": "CCUGACGAUUGAGUAUCAUTT against D2Ertd435e", "z-score": "inactive: -1.85"},
      {"sequence": "GGAAUUUUUUCUUGAUGGATT against Tubgcp5", "z-score": "inactive: 0.628"},
      {"sequence": "GGUUUGCCAAGAAAACUUATT against 3732413I11Rik", "z-score": "inactive: 0.094"},
      {"sequence": "GGCAGAGGAGAAAAUCAAGTT against Cutl2", "z-score": "inactive: 0.734"},
      {"sequence": "GCACAGUUGCUUUACAUCGTT against Psca", "z-score": "inactive: 1.16"},
      {"sequence": "GUCAUGCUUACUGUUCAGATT against V1rc13", "z-score": "inactive: 0.387"},
      {"sequence": "GGGACAAGAAACUGGCUCUTT against Olfr1339", "z-score": "inactive: 0.1"},
      {"sequence": "GGCAACACGUUGAUUGUUGTT against Olfr750", "z-score": "inactive: -0.262"},
      {"sequence": "GCCAAACUUAGCGUGCUCATT against C130007D14", "z-score": "inactive: -1.73"},
      {"sequence": "GCAAAAAUGGAAGUAUCUGTT against MGC58426", "z-score": "inactive: 0.0817"},
      {"sequence": "GGUAAUGGUCAAAUUUGAUTT against Ahsg", "z-score": "inactive: 0.673"},
      {"sequence": "GGCUGACAAAGAAGAAGCCTT against Dmrta2", "z-score": "inactive: 0.452"},
      {"sequence": "GGGAACCUUGUCAUGAUGATT against Tcd1d16", "z-score": "inactive: -0.552"},
      {"sequence": "CCAUCAGGACUCGUGAAUGTT against Fign", "z-score": "inactive: -1.96"},
      {"sequence": "GCCAUUAAAGGUAACACUGTT against 4930511M11Rik", "z-score": "inactive: 0.209"},
      {"sequence": "GGACAUCAAGAAGGACAAATT against Ppp2r5d", "z-score": "inactive: -1.8"},
      {"sequence": "GCCUCUGUUCCAUCUUGGATT against F830104G03Rik", "z-score": "inactive: -1.75"},
      {"sequence": "GCAGCAUCUAAGAGUGGCGTT against 1110030K22Rik", "z-score": "inactive: -0.398"},
      {"sequence": "GGACACAAGUUUUCAGAUCTT against 9830169G11Rik", "z-score": "inactive: 0.274"},
      {"sequence": "GGACGGUGAGAUCUGUUUGTT against Clps", "z-score": "inactive: 1.14"},
      {"sequence": "GCAACUGCCUAGGCUUGAUTT against Slc30a7", "z-score": "inactive: 0.931"},
      {"sequence": "GGAACUACAUCAUUCAGAATT against Tspyl1", "z-score": "inactive: -0.378"},
      {"sequence": "GCCUAAACAUUCAAAUCCCTT against Abcc3", "z-score": "inactive: 1.28"},
      {"sequence": "GAUCAUUCUCUUUUUCCUCTT against Olfr1095", "z-score": "inactive: 0.694"},
      {"sequence": "GGUUGUGAACAGCAUGUACTT against Ccr9", "z-score": "inactive: 1.5"},
      {"sequence": "GCGGGUUAUCCUCUACUACTT against Col15a1", "z-score": "inactive: 0.594"},
      {"sequence": "GACAAGAACCCGGAUAAUATT against Dnajb10", "z-score": "inactive: 0.668"},
      {"sequence": "CCCAAGCGGUAUCAUAUUUTT against 1200016B10Rik", "z-score": "inactive: -0.388"},
      {"sequence": "GGCAGAGGAUCGAGAAAAGTT against Dhrs4", "z-score": "inactive: -0.225"},
      {"sequence": "CCCACCUUCAAGCAAGAACTT against Ifnk", "z-score": "inactive: -1.19"},
      {"sequence": "CCGUUUUCAUGCAUUGUUGTT against Olfr1377", "z-score": "inactive: -0.963"},
      {"sequence": "GGGAUUAAUAUUUUCCUCUTT against Pttg1ip", "z-score": "inactive: -1.37"},
      {"sequence": "GGUUCUGUUUGUCACAUUCTT against Olfr1234", "z-score": "inactive: -0.16"},
      {"sequence": "GCCUGCUUAAGCUACUUAUTT against 2010011I20Rik", "z-score": "inactive: 1.12"},
      {"sequence": "CGUCUGAUCUAGAUGACUCTT against 8430410K20Rik", "z-score": "inactive: 0.122"},
      {"sequence": "GCAUAGUUGGAACCGUAUUTT against Tdpoz3", "z-score": "inactive: 0.48"},
      {"sequence": "CGACCUCGUCUACAUCUCCTT against Lrrn6a", "z-score": "inactive: -0.0269"},
      {"sequence": "CCAUAAGCGAAAUGCCUUCTT against Areg", "z-score": "inactive: -1.01"},
      {"sequence": "GGAUCGUGAUCCAUCAGAGTT against Rnf3", "z-score": "inactive: -2.55"},
      {"sequence": "GACACCACCAUCAAUCAACTT against Olfr338", "z-score": "inactive: 0.31"},
      {"sequence": "CGAAGUUACGAGCAUCCACTT against Crhr2", "z-score": "inactive: 0.659"},
      {"sequence": "GGCCAUCUUGGACAGCAAGTT against Nt5m", "z-score": "inactive: 0.743"},
      {"sequence": "CGUUACCAUGAGAGUUAAUTT against Pcdhb19", "z-score": "inactive: 0.133"},
      {"sequence": "GGCCCAGUCAUGUCAAAUCTT against Olfr1346", "z-score": "inactive: 0.239"},
      {"sequence": "CCAUGAUUAAGGGUCUCUATT against Ldh1", "z-score": "inactive: -1.26"},
      {"sequence": "GGAUUCUGUGACCCUUGCATT against Lu", "z-score": "inactive: -1.06"},
      {"sequence": "GCAUAUAAGAGAAGUGCCUTT against D16Ertd607e", "z-score": "inactive: 0.207"},
      {"sequence": "GGAGGUAGGAAUAUGACUUTT against Klrb1c", "z-score": "inactive: -1.51"},
      {"sequence": "GCUAAUCAACAAUGUCGCCTT against Atp5b", "z-score": "inactive: -0.627"},
      {"sequence": "GGAUUUGACACUGCUCCACTT against Arhgef6", "z-score": "inactive: -0.909"},
      {"sequence": "GGGCUGCAUAUGACAAGGUTT against 1700025B16Rik", "z-score": "inactive: 1.38"},
      {"sequence": "GGCAGAGUUUCAAUGAGGUTT against Rras", "z-score": "inactive: 0.286"},
      {"sequence": "CGGAGCAAUACAAACUUUATT against Olfr1263", "z-score": "inactive: -0.152"},
      {"sequence": "GCUUCCACAACUCAUAAAUTT against Esd", "z-score": "inactive: 0.741"},
      {"sequence": "GCAGUGGGACAUAGUCAGATT against 1810008K16Rik", "z-score": "inactive: -1.11"},
      {"sequence": "GGUCUAUUAUGGCUUAAAGTT against Insl5", "z-score": "inactive: 0.234"},
      {"sequence": "GGUCCUGUAUAAGACAGAATT against Fst", "z-score": "inactive: -1.19"},
      {"sequence": "CCUAAACUCAGUGCCUCAGTT against Mrps36", "z-score": "inactive: 0.135"},
      {"sequence": "GGAGCUCAAAACCUCCAAGTT against Odd1", "z-score": "inactive: 0.731"},
      {"sequence": "GGUCAUGUAUUUCCUCAUCTT against Omp", "z-score": "inactive: -0.393"}
    ]}
  ]
}
